From publication PMC4650545
No constants are given. Whether binding was seen depends on the method and setting. Binding seen in cells or lysates may run through a third protein. Some results given as binding are weak or reduced against the parent protein; the word gives no strength.

Protein sequences, listed by entry. Tags and fused reporters are not part of them.
UniProt P08151: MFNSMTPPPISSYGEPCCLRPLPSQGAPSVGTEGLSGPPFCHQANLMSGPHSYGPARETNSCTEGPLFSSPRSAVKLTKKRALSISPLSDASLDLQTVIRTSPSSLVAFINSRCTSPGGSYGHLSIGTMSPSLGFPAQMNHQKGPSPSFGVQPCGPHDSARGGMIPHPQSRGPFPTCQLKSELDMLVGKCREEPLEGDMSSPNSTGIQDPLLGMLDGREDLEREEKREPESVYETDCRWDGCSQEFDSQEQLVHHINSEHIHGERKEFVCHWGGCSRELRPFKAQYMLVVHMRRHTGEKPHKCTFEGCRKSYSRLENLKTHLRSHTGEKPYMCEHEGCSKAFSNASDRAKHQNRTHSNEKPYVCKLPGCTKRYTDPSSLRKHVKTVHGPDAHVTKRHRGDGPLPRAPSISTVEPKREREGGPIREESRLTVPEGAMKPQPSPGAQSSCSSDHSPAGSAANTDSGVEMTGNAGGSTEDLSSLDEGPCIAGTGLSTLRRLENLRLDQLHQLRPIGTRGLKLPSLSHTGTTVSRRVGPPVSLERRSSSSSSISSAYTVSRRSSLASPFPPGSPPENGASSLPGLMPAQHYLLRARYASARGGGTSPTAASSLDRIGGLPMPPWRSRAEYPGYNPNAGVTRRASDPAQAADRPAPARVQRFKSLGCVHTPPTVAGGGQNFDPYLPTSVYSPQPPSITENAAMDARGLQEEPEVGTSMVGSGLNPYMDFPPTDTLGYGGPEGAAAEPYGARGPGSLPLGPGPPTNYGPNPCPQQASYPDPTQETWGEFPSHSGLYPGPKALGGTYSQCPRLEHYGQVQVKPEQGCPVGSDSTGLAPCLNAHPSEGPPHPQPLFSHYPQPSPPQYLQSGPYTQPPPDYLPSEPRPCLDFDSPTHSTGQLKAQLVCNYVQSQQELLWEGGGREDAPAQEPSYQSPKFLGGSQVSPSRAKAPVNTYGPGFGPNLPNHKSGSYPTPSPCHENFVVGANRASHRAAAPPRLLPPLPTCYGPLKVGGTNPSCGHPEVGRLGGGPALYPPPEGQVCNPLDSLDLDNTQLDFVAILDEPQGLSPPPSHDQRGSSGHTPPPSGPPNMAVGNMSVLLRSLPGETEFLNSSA
UniProt Q92831: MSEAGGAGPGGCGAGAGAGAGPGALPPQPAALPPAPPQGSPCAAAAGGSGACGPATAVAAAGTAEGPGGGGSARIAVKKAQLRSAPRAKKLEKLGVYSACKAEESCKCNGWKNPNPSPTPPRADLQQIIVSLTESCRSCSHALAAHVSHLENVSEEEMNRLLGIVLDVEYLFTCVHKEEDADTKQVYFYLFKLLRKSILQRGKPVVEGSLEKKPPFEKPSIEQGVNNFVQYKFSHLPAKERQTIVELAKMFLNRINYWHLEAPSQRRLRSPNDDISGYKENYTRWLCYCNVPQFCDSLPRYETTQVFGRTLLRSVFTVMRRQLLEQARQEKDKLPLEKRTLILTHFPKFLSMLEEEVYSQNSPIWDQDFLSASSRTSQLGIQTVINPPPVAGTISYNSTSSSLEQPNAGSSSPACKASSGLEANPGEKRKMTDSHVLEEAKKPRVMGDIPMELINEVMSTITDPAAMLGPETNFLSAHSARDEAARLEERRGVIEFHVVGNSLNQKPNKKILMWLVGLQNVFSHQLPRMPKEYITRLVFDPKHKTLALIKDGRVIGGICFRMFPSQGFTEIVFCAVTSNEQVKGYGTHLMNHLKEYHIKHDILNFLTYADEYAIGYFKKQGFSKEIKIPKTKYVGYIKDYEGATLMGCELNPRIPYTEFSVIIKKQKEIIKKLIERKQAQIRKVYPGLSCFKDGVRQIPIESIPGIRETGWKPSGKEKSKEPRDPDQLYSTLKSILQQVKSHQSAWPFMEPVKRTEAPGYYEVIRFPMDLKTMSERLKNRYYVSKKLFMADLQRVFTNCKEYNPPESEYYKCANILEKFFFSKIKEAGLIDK

Target: Glioma-associated oncogene 1 (GLI1), cytoplasmic, endogenous (human (endogenous in PLC/PRF/5 and Hep3B)) (UniProt P08151)
Test: co-IP; cytoplasmic extracts of PLC/PRF/5 PCAF cells and of wild-type Hep3B cells; immunoprecipitation buffer 50 mM Tris-HCl pH 8.0, 150 mM NaCl, 5 mM EDTA, 0.5% NP-40; primary antibodies against PCAF and GLI1 or IgG, 4 °C overnight; western immunoblotting

| binding | Substance |
| --- | --- |
| binds | P300/CBP-associated factor (PCAF), expressed from the PCAF-expressing plasmid (from UniProt Q92831 1-832) (enzyme) |
| binds | P300/CBP-associated factor (PCAF), endogenous in Hep3B cells (from UniProt Q92831 1-832) (enzyme) |
